Reference: US20220064302A1

Biological target: Cyno PD-1 (cyno)
Test: BLI (Octet Red96), mAb on AHC biosensor, cyno PD-1 as analyte

B1: A1 (antibody, V domains shown)
VH: QVQLVESGGGVVQPGRSLRLSCAASGFTFSNYGMHWVRQAPGKGLEWVAVIWYDGSNKYYTDSVKGRFTISRDNSKNTLYLQMNSLRAEDTAVYYCAGGGNYYGDYWGQGTLVTVSS
VL: DIQMTQSPSSLSASVGDRVTITCRASQGIRNDLGWYQQKPGKAPKRLIYVASSLQSGVPSRFSGSGSGTEFTLTISSLQPEDFATYYCLQHNSYPLTFGGGTKVEIKR
binding: no binding (tested: antigen dilutions beginning at 300 nM)

B2: A3 (antibody, V domains shown)
VH: QVQLVESGGGEVQPGRSLRLSCAASGFTFSDYGMHWVRQAPGKGLEWVAVIWYDGSNKYYADSVKGRFTISRDNSKNTLYLQMNSLRAEDTAVYYCAGGGSYWGDYWGQGTLVTVSS
VL: DIQMTQSPSSLSASVGDRVTITCRASQGIRNELGWYQQKPGKAPKRLIYAASSLQSGVPSRFSGSGSGTEFTLTISSLQPEDFATYYCLQHYIYPWTFGQGTKVEIKR
binding: no binding (tested: antigen dilutions beginning at 300 nM)

No constants are given. Whether binding was seen depends on the method and setting.
